The values below come from the supplement of paper PMC10849652.

The chains behind the UniProt entries cited, without tags or fusion partners. Where a name states a change or a piece, a line headed by the entry shows the natural chain unless it says otherwise.
UniProt P48730: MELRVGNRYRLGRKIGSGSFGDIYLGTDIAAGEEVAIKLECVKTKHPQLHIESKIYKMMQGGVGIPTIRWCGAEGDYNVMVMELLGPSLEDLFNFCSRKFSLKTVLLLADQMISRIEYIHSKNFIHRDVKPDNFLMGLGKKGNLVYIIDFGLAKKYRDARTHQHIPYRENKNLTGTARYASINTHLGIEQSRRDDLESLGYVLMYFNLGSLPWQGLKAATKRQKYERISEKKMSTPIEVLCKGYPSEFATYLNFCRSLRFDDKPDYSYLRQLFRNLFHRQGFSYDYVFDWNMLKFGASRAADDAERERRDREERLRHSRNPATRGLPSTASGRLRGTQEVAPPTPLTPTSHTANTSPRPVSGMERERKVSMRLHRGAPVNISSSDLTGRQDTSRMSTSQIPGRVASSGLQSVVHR
UniProt P01037: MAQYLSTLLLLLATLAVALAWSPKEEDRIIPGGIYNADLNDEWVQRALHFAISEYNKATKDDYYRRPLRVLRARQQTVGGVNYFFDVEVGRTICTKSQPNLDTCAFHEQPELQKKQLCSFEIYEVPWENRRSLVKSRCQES
UniProt P01036: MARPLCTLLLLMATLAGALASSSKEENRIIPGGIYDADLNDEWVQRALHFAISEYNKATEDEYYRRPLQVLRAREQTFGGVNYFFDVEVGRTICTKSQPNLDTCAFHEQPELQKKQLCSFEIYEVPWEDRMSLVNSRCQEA
UniProt Q14894: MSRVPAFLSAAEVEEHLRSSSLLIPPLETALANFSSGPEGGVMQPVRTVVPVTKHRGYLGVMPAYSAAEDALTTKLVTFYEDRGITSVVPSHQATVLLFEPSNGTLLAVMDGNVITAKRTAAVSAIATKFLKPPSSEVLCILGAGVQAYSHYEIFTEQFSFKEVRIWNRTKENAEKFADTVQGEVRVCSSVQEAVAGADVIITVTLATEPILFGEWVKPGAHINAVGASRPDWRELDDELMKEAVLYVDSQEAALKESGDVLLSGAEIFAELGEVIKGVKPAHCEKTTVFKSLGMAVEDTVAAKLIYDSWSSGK
UniProt Q9P2B4: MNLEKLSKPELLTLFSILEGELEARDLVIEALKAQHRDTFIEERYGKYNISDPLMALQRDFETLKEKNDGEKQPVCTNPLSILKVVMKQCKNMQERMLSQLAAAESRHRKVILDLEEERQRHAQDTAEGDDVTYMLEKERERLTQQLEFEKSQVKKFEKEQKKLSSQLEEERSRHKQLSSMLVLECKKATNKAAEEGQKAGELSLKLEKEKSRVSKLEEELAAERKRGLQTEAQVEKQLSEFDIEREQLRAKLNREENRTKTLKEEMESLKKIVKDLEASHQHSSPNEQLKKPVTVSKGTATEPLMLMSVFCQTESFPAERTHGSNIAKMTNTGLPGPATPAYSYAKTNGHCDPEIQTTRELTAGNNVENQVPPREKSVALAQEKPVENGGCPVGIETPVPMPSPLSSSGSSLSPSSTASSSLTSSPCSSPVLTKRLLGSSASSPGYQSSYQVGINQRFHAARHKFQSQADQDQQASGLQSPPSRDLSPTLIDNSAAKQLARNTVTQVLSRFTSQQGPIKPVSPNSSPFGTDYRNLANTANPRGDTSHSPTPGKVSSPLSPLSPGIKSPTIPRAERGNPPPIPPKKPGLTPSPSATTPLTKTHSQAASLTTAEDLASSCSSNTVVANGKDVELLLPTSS
UniProt P00167, whole entry, looked up: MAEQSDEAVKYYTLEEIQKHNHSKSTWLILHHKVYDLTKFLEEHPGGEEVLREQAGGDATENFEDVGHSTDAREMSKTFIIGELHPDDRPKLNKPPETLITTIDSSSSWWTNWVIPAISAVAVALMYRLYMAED
UniProt Q9BQA9: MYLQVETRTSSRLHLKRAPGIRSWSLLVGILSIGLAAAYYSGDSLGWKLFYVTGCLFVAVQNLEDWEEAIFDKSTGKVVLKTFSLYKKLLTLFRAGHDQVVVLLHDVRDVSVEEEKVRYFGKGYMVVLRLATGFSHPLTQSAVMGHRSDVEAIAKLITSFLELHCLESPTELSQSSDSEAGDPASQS
UniProt Q86T23: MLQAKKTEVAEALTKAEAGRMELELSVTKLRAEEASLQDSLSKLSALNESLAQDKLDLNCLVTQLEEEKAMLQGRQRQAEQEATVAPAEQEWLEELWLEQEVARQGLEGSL
UniProt P25774, whole entry, looked up: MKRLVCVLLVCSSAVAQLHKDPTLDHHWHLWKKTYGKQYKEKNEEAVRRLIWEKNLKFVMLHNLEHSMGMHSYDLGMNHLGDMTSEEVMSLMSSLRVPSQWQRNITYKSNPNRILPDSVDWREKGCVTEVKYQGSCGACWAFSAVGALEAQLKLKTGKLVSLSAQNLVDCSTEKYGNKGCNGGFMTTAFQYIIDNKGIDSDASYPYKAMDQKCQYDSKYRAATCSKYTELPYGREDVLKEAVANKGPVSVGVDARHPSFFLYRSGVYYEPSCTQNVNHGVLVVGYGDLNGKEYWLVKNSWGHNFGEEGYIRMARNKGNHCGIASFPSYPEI
UniProt O60931: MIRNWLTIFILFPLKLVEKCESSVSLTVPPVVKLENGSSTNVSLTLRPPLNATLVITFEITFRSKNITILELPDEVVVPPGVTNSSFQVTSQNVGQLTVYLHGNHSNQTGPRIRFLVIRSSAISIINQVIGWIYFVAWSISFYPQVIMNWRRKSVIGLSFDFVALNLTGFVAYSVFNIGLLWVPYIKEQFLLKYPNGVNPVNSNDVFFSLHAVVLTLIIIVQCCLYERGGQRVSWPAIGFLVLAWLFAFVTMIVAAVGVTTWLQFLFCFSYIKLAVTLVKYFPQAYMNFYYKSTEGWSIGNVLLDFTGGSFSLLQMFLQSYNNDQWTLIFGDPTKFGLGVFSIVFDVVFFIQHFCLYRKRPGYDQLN
UniProt H7BZ55: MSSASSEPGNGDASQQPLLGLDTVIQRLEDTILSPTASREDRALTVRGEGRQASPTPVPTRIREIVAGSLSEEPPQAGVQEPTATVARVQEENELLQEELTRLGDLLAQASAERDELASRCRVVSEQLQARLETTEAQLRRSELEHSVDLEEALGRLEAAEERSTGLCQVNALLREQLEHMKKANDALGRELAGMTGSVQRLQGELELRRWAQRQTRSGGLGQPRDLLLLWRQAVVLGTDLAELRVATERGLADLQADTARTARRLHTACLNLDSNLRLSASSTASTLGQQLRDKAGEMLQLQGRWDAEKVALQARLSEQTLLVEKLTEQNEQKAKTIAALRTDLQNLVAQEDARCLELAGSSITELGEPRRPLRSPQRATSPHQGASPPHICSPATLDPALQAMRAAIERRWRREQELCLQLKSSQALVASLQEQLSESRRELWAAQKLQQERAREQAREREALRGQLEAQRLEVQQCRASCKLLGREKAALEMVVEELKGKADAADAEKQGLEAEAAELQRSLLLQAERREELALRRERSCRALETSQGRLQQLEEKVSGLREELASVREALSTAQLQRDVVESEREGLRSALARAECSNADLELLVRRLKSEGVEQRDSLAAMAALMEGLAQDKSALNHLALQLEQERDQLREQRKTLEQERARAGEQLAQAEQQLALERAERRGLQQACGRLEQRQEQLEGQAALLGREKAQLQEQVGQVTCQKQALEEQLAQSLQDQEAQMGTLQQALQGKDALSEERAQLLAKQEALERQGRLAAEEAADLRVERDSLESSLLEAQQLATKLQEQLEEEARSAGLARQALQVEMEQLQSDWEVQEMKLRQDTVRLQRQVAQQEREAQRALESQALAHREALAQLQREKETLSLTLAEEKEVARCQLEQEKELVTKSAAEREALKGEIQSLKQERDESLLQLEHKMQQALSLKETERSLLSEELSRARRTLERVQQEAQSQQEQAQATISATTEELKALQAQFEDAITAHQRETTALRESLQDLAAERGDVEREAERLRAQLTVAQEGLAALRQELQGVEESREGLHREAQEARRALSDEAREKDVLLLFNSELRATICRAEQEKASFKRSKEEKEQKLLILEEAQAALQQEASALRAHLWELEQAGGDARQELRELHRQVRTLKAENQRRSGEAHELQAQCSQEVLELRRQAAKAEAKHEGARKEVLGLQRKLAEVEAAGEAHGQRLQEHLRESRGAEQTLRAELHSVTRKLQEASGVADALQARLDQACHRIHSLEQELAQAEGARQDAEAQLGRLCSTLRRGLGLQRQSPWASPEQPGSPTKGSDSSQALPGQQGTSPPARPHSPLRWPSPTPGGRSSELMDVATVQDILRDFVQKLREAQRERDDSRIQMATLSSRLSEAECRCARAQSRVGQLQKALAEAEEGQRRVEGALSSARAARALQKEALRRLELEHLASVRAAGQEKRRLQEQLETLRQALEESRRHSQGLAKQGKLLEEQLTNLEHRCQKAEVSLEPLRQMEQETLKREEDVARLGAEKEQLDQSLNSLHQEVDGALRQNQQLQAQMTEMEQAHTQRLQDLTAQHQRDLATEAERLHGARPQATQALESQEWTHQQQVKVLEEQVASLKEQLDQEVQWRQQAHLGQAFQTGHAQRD
UniProt Q9H175: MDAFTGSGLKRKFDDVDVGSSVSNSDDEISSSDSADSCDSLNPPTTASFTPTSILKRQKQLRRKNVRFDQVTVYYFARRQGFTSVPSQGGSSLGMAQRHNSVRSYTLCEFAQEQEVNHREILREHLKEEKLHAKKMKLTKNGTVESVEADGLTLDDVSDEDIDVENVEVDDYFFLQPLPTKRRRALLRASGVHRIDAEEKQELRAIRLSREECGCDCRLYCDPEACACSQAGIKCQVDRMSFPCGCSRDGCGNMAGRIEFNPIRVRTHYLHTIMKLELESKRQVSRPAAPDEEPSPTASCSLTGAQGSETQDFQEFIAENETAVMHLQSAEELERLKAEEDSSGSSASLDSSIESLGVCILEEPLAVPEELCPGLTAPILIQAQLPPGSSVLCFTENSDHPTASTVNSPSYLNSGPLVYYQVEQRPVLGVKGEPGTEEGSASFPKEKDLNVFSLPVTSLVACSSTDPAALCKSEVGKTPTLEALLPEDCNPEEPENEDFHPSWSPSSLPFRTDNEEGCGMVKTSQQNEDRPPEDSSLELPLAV
UniProt Q9Y600: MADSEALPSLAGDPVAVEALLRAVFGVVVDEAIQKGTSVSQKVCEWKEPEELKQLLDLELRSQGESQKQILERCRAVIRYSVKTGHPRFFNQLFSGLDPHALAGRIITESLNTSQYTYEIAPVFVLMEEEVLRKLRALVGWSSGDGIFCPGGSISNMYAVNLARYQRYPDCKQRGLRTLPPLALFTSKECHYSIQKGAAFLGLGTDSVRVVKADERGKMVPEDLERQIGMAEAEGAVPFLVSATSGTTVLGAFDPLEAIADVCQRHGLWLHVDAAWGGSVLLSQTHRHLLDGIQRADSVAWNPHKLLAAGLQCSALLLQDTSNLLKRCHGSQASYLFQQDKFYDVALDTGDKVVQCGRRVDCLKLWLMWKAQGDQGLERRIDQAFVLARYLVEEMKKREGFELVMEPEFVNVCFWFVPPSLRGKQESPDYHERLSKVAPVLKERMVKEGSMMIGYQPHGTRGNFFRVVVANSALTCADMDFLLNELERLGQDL
UniProt P08311: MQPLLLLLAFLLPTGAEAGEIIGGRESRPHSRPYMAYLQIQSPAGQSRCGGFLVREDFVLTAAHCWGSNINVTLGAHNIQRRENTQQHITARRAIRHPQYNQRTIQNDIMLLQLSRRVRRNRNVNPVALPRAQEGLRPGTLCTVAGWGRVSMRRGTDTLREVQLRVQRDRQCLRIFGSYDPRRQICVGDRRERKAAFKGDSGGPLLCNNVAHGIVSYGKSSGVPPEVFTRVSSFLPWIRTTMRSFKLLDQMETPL
UniProt Q9GZU7: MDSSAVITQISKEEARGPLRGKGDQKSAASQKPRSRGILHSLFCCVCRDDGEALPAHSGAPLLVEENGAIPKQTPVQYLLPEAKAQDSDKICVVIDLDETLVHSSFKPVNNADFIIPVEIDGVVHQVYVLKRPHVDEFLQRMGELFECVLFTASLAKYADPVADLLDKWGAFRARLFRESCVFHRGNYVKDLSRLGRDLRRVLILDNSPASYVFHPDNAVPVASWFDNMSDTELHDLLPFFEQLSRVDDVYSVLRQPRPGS
UniProt P54108: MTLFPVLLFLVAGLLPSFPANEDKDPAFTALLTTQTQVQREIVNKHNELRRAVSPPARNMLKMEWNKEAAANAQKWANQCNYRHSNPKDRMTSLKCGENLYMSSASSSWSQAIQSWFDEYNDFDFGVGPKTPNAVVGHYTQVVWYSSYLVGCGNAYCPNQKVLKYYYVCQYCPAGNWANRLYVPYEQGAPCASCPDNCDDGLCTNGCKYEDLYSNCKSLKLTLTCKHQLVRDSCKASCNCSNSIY
UniProt P48729: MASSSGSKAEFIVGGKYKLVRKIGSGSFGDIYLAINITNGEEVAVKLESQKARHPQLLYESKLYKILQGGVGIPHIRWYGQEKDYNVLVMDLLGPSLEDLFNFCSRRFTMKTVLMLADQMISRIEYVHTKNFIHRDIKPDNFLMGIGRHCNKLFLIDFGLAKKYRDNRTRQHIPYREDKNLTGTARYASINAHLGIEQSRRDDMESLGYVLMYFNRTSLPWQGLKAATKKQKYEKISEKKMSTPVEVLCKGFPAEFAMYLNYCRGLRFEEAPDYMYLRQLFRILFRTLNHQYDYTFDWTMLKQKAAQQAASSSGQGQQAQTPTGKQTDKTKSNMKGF

This is one part of the list.

Compound in one experiment: C1CCN(C1)C(=O)NC2=CC=CC(=C2)NC3=NC=C(C(=N3)NCCC4=CN=CN4)Br
Put plainly: log2 fold change, soluble protein after heating vs DMSO (PISA); higher = thermal stabilisation; K562 lysate, 10 uM; active = over 0.2 and 3.5 SD of the protein, either way, in both replicates (recomputed). In short, it runs like this: (§1)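 Quantification was by TMTpro 16plex LC-MS/MS with equalised channel sums, applied to the supernatant after 21,000xg for 90 min. Samples were crude K562 extract at 1 mg/mL protein in PBS pH 7.4 with 1 mM MgCl2, treated with 10 μM compound for 30 min, heated for 3 min across 48°C-58°C, pooled and brought to 0.5% NP-40 at 4°C. Values are log-two fold changes in thermal stability relative to solvent controls, from duplicates.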
On to CSRP2 (UniProt Q16527), for which the log2 fold change is inactive: 0.043.
CSNK1G1 (UniProt Q9HCP0): the log2 fold change is inactive: 0.093.
For CSNK1D (UniProt P48730), the log2 fold change was inactive: -0.031.
In the case of CST1 (UniProt P01037), the log2 fold change was inactive: 0.026.
On the same count and under the same terms, for CST4 (UniProt P01036) the value was inactive: -0.127; for CRYM (UniProt Q14894), inactive: -0.078.
For the target CTTNBP2NL (UniProt Q9P2B4), the log2 fold change was inactive: -0.117.
Take CRAMP1 (UniProt Q96RY5): the log2 fold change was inactive: 0.008.
Same read-out and setting: for CYB5A (UniProt P00167) the value was inactive: -0.01; for CROT isoform 3 (UniProt Q9UKG9), inactive: 0.267; for CYBC1 (UniProt Q9BQA9), inactive: 0.095.
Regarding CTRB2 (UniProt Q6GPI1), the log2 fold change was inactive: 0.05.
Consider CROCCP2 (UniProt Q86T23), for which the log2 fold change was inactive: -0.111.
Take CWC25 (UniProt Q9NXE8): the log2 fold change is inactive: 0.085.
On to CTCFL isoform 7 (UniProt Q8NI51), for which the log2 fold change is inactive: 0.121.
Turning to CTSS (UniProt P25774), the log2 fold change was inactive: 0.088.
As to CTNS isoform 2 (UniProt O60931), the log2 fold change was inactive: 0.061.
The same measure, in the same setting: for CROCC2 (UniProt H7BZ55) the value was inactive: -0.079.
On to CXCL14 (UniProt O95715), for which the log2 fold change is inactive: -0.444.

Compound in another experiment: C1CN(CCC1(CC2=CC=C(C=C2)Cl)N)C3=NC=NC4=C3C=CN4
Described as above. In short, it runs like this:
as §1
Turning to CSRP2 (UniProt Q16527), the log2 fold change was inactive: -0.003.
CSNK1G1 (UniProt Q9HCP0): the log2 fold change is inactive: -0.152.
With CSNK1D (UniProt P48730), the log2 fold change was inactive: 0.013.
On to CST1 (UniProt P01037), for which the log2 fold change was inactive: -0.07.
The same measure, in the same setting: to CST4 (UniProt P01036) belongs inactive: 0.337; to CRYM (UniProt Q14894), inactive: 0.029; to CTTNBP2NL (UniProt Q9P2B4), inactive: 0.197.
As to CRAMP1 (UniProt Q96RY5), the log2 fold change was inactive: -0.04.
Take CYB5A (UniProt P00167): the log2 fold change is inactive: 0.049.
Same read-out and setting: to CROT isoform 3 (UniProt Q9UKG9) belongs inactive: -0.02.
As to CYBC1 (UniProt Q9BQA9), the log2 fold change was inactive: 0.03.
On to CTRB2 (UniProt Q6GPI1), for which the log2 fold change was inactive: -0.06.
Take CROCCP2 (UniProt Q86T23): the log2 fold change was inactive: 0.117.
For CWC25 (UniProt Q9NXE8), the log2 fold change is inactive: -0.379.
Consider CTCFL isoform 7 (UniProt Q8NI51), for which the log2 fold change is inactive: 0.31.
For the target CTSS (UniProt P25774), the log2 fold change was inactive: 0.018.
On to CTNS isoform 2 (UniProt O60931), for which the log2 fold change was inactive: -0.009.
CROCC2 (UniProt H7BZ55): the log2 fold change is inactive: -0.032.
Take CXCL14 (UniProt O95715): the log2 fold change was inactive: 0.119.

Compound in another experiment: C1COCCN1CCN2C3=CC=CC=C3N=C2NC(=O)C4=CC(=CC=C4)[N+](=O)[O-] [IRAK-1-4 Inhibitor I]
Described as above. In short, it runs like this: as §1
On to CRIP2 isoform 2 (UniProt P52943), for which the log2 fold change is inactive: 0.054.
On to CSDE1 isoform 3 (UniProt O75534), for which the log2 fold change is inactive: -0.011.
In the case of CSNK1D (UniProt P48730), the log2 fold change was inactive: -0.048.
Regarding CST1 (UniProt P01037), the log2 fold change is inactive: -0.189.
With CST4 (UniProt P01036), the log2 fold change was inactive: 0.041.
On the same count and under the same terms, to CRYM (UniProt Q14894) belongs inactive: -0.133; to CTTNBP2NL (UniProt Q9P2B4), inactive: 0.044.
Consider CYB5A (UniProt P00167), for which the log2 fold change was inactive: -0.017.
With CYBC1 (UniProt Q9BQA9), the log2 fold change is inactive: 0.088.
As to CSRNP2 (UniProt Q9H175), the log2 fold change was inactive: -0.095.
CSAD isoform 3 (UniProt Q9Y600): the log2 fold change was inactive: -0.02.
For CRTC2 (UniProt H0YDQ8), the log2 fold change was inactive: 0.03.
In the case of CTSG (UniProt P08311), the log2 fold change was inactive: 0.123.
Regarding CRLS1 (UniProt Q9UJA2), the log2 fold change was inactive: -0.021.
Consider CTSF (UniProt Q9UBX1), for which the log2 fold change is inactive: -0.069.
On to CTDSP1 (UniProt Q9GZU7), for which the log2 fold change was inactive: 0.076.
Turning to CTNS isoform 2 (UniProt O60931), the log2 fold change is inactive: -0.081.
Consider CXorf40B (UniProt Q96DE9), for which the log2 fold change was inactive: -0.017.
As for CRISP3 isoform 3 (UniProt P54108), the log2 fold change was inactive: -0.238.
Consider CREM isoform 1 (UniProt Q03060), for which the log2 fold change was inactive: 0.042.
Same read-out and setting: for CS (UniProt F8VU34) the value was inactive: 0.345; for CSNK1A1 isoform 3 (UniProt P48729), inactive: 0.088.
